First the molecules themselves.
B1: Protein disulfide oxidoreductase (protein, UniProt Q5JE30 1-226)
chain: MGLISDADKKVIKEEFFSKMTNPVKLIVFVGKEHCQYCDQLKQLVQELSELTDKLSYEVVDFDTEEGKKLAEQYRIDRAPATTITQDGKDMGVRYFGLPAGHEFGAFLEDIVDVSNGTTDLAPDTKEAIHGVDKDVRILVFVTPTCPYCPLAVRMAHKFAIENTLAGKGKILGDMVEAIEYPEWADQYSVMAVPKIVIQVDGEDKVQFEGAYPEKMFLEKLLAALE
B2: Thermosome, β subunit (protein, UniProt Q52500 1-546)
chain: MAQLAGQPVVILPEGTQRYVGRDAQRLNILAARIIAETVRTTLGPKGMDKMLVDSLGDIVITNDGATILDEMDIQHPAAKMMVEVAKTQDKEAGDGTTTAVVIAGELLRKAEELLDQNIHPSIIIKGYALAAEKAQEILDEIAKDVDVEDREILKKAAVTSITGKAAEEEREYLAEIAVEAVKQVAEKVGETYKVDLDNIKFEKKEGGSVKDTQLIKGVVIDKEVVHPGMPKRVEGAKIALINEALEVKETETDAEIRITSPEQLQAFLEQEEKMLREMVDKIKEVGANVVFVQKGIDDLAQHYLAKYGIMAVRRVKKSDMEKLAKATGAKIVTNVRDLTPEDLGEAELVEQRKVAGENMIFVEGCKNPKAVTILIRGGTEHVVDEVERALEDAVKVVKDIVEDGKIVAAGGAPEIELAIRLDEYAKEVGGKEQLAIEAFAEALKVIPRTLAENAGLDPIETLVKVIAAHKEKGPTIGVDVFEGEPADMLERGVIAPVRVPKQAIKSASEAAIMILRIDDVIAASKLEKDKEGGKGGSEDFGSDLD
B3: Membrane-bound hydrogenase subunit, MbhK (TK2090) (protein, UniProt Q5JIL4 1-189)
chain: MSEANPITEVNEVKEPTKAEDVARKIAERFPSASVEVKTNKWGRQRVWVRVPREDYKALMSFIKGLDPEAHYSIGIEQDWGEELGFLSHILIHYRDAPAVSLIVDVHAPKDDPVLPDISDVFPIALQFEREGMEMVGLDFEGAPDKRRLFLPDDFPEGIYPLRLDDKGISEEMVHNAGHPYYIKGGAKK
B4: V-type ATP synthase subunit D (protein, UniProt Q5JIR1 1-214)
chain: MAELLNVKPTRMELLNLKRRITLAKKGHKLLKDKQDALVMEFFTIYDEALRLREELNEKMMEAFKALQRAEIDVGTLRMKEISLSVKPNREVEVKTRNVMGVPVPLIEAESFKRSAGERGYAFVSSSARVDLAAEKFEEVLDLAVRLAEVEETLKRLAKEIEVTKRRVNALEYIIIPRMEATVKFIKQRLDEMERENFFRLKRVKALIEARSGS
B5: Superoxide reductase (protein, UniProt Q5JF09 1-115)
chain: MLSQTIKSGDWKGEKHVPVIEYEKEGDLVKVEVSVGKEIPHPNTPEHHIAWIQLWFHPEDGAFPILVGKVEFSNHTDPLTEPRAVFFFRTQKKGKLYALSYCNIHGLWENEVTLE
B6: Membrane-bound hydrogenase subunit, MbhL (TK2091) (protein, UniProt Q5JIL3 1-426)
chain: MTEKVEYWVKIPFGPIHPGLEEPEKFILTLDGERIVDVDVKLGYNLRGIQWIALRRNYIQIMYLAERMCGICSFSHNHTYTRAVEEAGGIEVPERAEYIRVIIGELERIHSHLLNLGVLAHDIGYDTLLHLTWLAREKVMDTLEAVSGNRVNYSMVTIGGVRRDIDEKKRRIIEEMIKYYREVFPQIEEAFLHDPTIEARFRDTAVISKRVALEQGAVGPTGRGSGIRDDARWSEGLGVYPDLGIKPVMPQDVTGERPRGDVFDRMAVRIGELWQSLELIEHALDAMPDGPIKTFPKDNVLYAKLRLMVDGEGIGRYEAPRGELVHYVRGKKGSDKPLRWKPREPTFPNLFAVARGVIGDQVADFVVAVASIDPCLSCTDRVAVVQDGKKKILTEKDLLRESIKRTREINPDIKGDPSPLGVGCVR
B7: 4Fe-4S cluster-binding protein associated with formate dehydrogenase (TK2075) (protein, UniProt Q5JHW1 1-168)
chain: MTRRILHVDYSLCIGCETCEGVCDFIHGGRPNIKVYYTITGIPVPINCRHCEKAPCMDVCPAGAIYRDSDGAVIINPNKCIGCLMCLAACPFGVPTFDVKLKAVTKCDMCADRRRLGTAPACAEMCPAGAIFFGKPEEVEEKVRRRTAEKIARERLAAVNLEGVGRML
B8: Formate dehydrogenase, 4Fe-4S cluster-binding protein (protein, UniProt Q5JHV9 1-166)
chain: MARKTVFIDFSKCIECRACEVACEREHNGRSFINVFEWQEMAAMALNCRHCEKAPCLEVCPTNALYRDGDGAVLLAPQKCIGCLMCGIVCPFGIPELDSLDKIMMKCDLCAHRRAEGKLPACVETCPTDALLFGDFNDIQRMRRQKFTEKAIEIAKSGERIQFRGV
B9: Membrane-bound hydrogenase subunit, MbhJ (protein, UniProt Q5JHU7 1-176)
chain: MAITVPANQNGQKSNPSERERLEKRIAQLCRFLGKSPWVFHVNSGSCNGCDIEIIAALTPRYDAERFGVKLVGSPRHADILVVTGPVTNQSLERVKLVYEQTPDPKIVIAVGACPTGGSVFYESPFTNAPLDRVIPVDVYVPGCPPRPEAILHGVVLALEKLARMIKGEVPEEVGE
B10: V-type ATP synthase, subunit A (protein, UniProt Q5JIR3 1-585)
chain: MGRIIRVTGPLVVADGMKGAKMYEVVRVGEIGLIGEIIRLEGDKAVIQVYEETAGIRPGEPVEGTGSSLSVELGPGLLTAMYDGIQRPLEVLRQLSGDFIARGLTAPALPRDKKWHFTPKVKVGDKVVGGDVLGVVPETSIIEHKILVPPWVEGEIVEIAEEGDYTVEEVIAKVKKPDGTIEELKMYHRWPVRVKRPYKQKLPPEVPLITGQRTIDTFFSQAKGGTAAIPGPFGSGKTVTQHQLAKWSDAQVVVYIGCGERGNEMTDVLEEFPKLKDPKTGKPLMERTVLIANTSNMPVAAREASIYTGITIAEYFRDQGYDVALMADSTSRWAEALREISGRLEEMPGEEGYPAYLASKIAEFYERAGRVITLGSDERVGSVSVIGAVSPPGGDFSEPVVQNTLRVVKVFWALDADLARRRHFPAINWLRSYSLYIDAIQDWWHKNVDPEWRKMRDTAMALLQKEAELQEIVRIVGPDALPDREKAILIVTRMLREDYLQQDAFDEVDTYCPPKKQVTMMRVILNFYEKTMQAVDRGVPVDEIAKLPVREKIGRMKFEPDVEKVRALIDETNQQFEELFKKYGA
B11: V-type ATP synthase, subunit H (protein, UniProt Q5JDS3 1-103)
chain: MEDVIKRIVEAEKEAETRIEKAEHEAKEIIRKAKEEAKKIEEETIKKAEEESQNLIEKARLEGETEAKKILEEGEKEISALRERAESNFETAIQEAIELVRGA
B12: Type II DNA topoisomerase VI, subunit A (protein, UniProt Q5JH82 1-385)
chain: MPKRKIQRERPKEKFSYDPRKVLKMLDEHARRILEDIKAGKNPHFDIPMRGLSNVYFDEKSRLIKMGDKLSRRYFLNVAHARKFMQTLLIMAYVKRLVSEGKHASLREAYYANKHTIPGTRENTFEDQSESDPIIEDLERMFGVLREEMHITADRRGYIYGDIVIRDGEDEFNASRLGSGGWAVPGTVEHIQFPEINVDYALVVETAAMADRLIEEKFPKRENALIIATQGQASRGVRRLIHRLHYEEGLPIIVFTDGDPYGWYIYSTIKQGSINLAYLSDKLATPESKFVGMTMDDIKKYGLENVTEKLKGIPPNKKGGPTGDYKRILEEMNYPWFQNKEWQRQLQLALKWGVRIEQQALANKSLEFVAKEYLPEKINNGDLLP
B13: Thermosome, α subunit (protein, UniProt P61111 1-548)
chain: MAQLSGQPVVILPEGTQRYVGRDAQRLNILAARIIAETVRTTLGPKGMDKMLVDSLGDIVVTNDGATILDKIDLQHPAAKMMVEVAKTQDKEAGDGTTTAVVIAGELLRKAEELLDQNIHPSIIIKGYALAAEKAQEILDEIAIRVDPDDEETLLKIAATSITGKNAESHKELLAKLAVEAVKQVAEKKDGKYVVDLDNIKFEKKAGEGVEESELVRGVVIDKEVVHPRMPKRVENAKIALINEALEVKKTETDAKINITSPDQLMSFLEQEEKMLKDMVDHIAQTGANVVFVQKGIDDLAQHYLAKYGIMAVRRVKKSDMEKLAKATGAKIVTNVKDLTPEDLGYAEVVEERKLAGENMIFVEGCKNPKAVTILIRGGTEHVIDEVERALEDAVKVVKDVMEDGAVLPAGGAPEIELAIRLDEYAKQVGGKEALAIENFADALKIIPKTLAENAGLDTVEMLVKVISEHKNRGLGIGIDVFEGKPADMLEKGIIEPLRVKKQAIKSASEAAIMILRIDDVIAAKATKPEGGQGGGMPGGMGGMDMGM
B14: Type II DNA topoisomerase VI, subunit B (protein, UniProt Q5JH81 1-567)
chain: MAEANQLFKEFKIQSVSEFFRRNAAMLGYTGKVRSLTTLVHEAVTNSLDACEEAGIPPYVRVEIEELGNEHYKVVVEDNGPGIPEKYITHVFGKMLAGTKAHRNIQSRGQQGIGISGAVMFAQITSGKATRVITSTGNDEIIEAWVKIDVDKNEGKIVKKEKHPNPKGWRGTRIELEVKNVKYMRSKQGVFWYLKLTAIANPHAHIELIEPDGKLIVFPRSSDYIPEPPVEMKPHPKGVLTDDVYRLAKKTRRNTVRRFLIGEFSRISDKKVDELIEYIAALRLIKTVEDKKLQEQYYQKLMEGHVKAVLRAFKGYTKVVKQVAKMMEKPPEKLTWHEAEEIVEAFKYMKFLAPPTHGLRPIGEENIEKGLKGILKPEFVTAVTRPPKVYSGGIPFQVEVGIAYGGEIPAGFDLYRYANRVPLLFDAGSCVTTQAARSIDWKRYKIDDLDRAPLVLMINVVSVHVPYTGTGKQSIASVDEIYNEIRLAIMDAARRLQTYLSGKHRKLAQVKRRKTFEKYVPEIARALSILTGEPEEKIREYFIRFIESKFASAEVEEVAAEEVAENA
B15: Membrane-bound hydrogenase subunit, MbhI (protein, UniProt Q5JHU8 1-118)
chain: MPEMFGYWDAIYFVFVFIIGLILAYLLDKWAKRSGMGTRETGDGTKIFISGEDPDRIIPGFEHLEGHYTGRNVMWGLTYALKNFFTVLRRDHTGLLTDYASYLVITTAFVLGVLLIWG
B16: V-type ATP synthase, subunit B (protein, UniProt Q5JIR2 1-465)
chain: MIMPGMEYSTVSKIYGPLMIVQGVKGVAYGEVVEIETESGEKRKGQVLEAREDMAIVQVFEGTRDLDIKTTRVRFTGETLKVPVSMDMLGRIFNGIGKPIDGGPEIIPEDRRDVHGAPLNPVARAYPRDFIQTGISAIDGMNTLVRGQKLPIFSGSGLPHNMLAAQIARQAKVLGEEEQFAVVFAAMGITYEEANFFKKSFEETGAIERAVLFLNLADDPAIERIITPRMALTVAEYLAFDYDMQVLVILTDMTNYAEALREISAAREEVPGRRGYPGYMYTDLATIYERAGRVRGKKGSITQMPILTMPDDDITHPIPDLTGYITEGQIVLSRELHRKGIYPPIDVLPSLSRLMKDGIGKGRTREDHPQLSQQLYAAYAEGRSLRDLVAVVGEEALSETDRKYLKFADRFEREFVAQRYDEDRSIFETLDLGWELLAELPESELKRVRKEYILKYHPKYRKRGE

The record followed here is PMC6401487.

No constants are given. Whether binding was seen depends on the method and setting. In cells and extracts the contact can be indirect. A yes stands for co-enrichment or nearness to the bait. Other partners may have been found. Tags and fused reporters may be left off the sequences shown.

The experiment concerns the target T1, Ferredoxin 3 (Fd-3), encoded by TK2012, with C-terminal HA-His6 extension (Thermococcus kodakarensis) (UniProt Q5JDE8).
T1 sequence: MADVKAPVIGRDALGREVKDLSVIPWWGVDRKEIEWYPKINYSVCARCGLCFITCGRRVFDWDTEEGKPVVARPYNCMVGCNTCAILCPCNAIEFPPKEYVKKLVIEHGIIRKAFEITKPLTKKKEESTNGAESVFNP
Briefly: affinity purification with mass spectrometry; C-terminally HA-His6-tagged Fd made from its own genomic locus; clarified lysates of cultures grown with S0 or without S0 (pyruvate); Ni2+-charged chelating column at 4 °C in 25 mM Tris-HCl pH 8.0, 500 mM NaCl, 10% glycerol; linear imidazole gradient; pooled Fd-containing fractions analysed by MuDPIT; proteins also found in equivalent fractions of parental strain TS559 subtracted.
Consider B1, for which the binding entry was “binds”.

On to B2, for which the binding result is given as “binds”.

Consider B3, for which the binding result is recorded as “binds”.

Turning to B4, the binding entry was “binds”.

For the molecule B5, the binding result is given as “binds”.

Regarding B6, the binding entry is reported as “binds”.

Consider B7, for which the binding result is recorded as “binds”.

Take B8: the binding entry is “binds”.

For the molecule B9, the binding result was “binds”.

As for B10, the binding entry is given as “binds”.

For the molecule B11, the binding result is “binds”.

Consider B12, for which the binding entry is “binds”.

As to B13, the binding result is “binds”.

In the case of B14, the binding result is “binds”.

Turning to B15, the binding entry was “binds”.

In the case of B16, the binding result is given as “binds”.
